Laboratory results: PubChem BioAssay AID624150 (Cancer Research UK Cambridge, 2012)

- Test: 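Which chromatin factors steer differentiation of epidermal stem cells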 (primary screen)
- Cell system: primary human epidermal keratinocytes
- Reagents: siRNA pool against human genes, 1-2 µM siRNA in 20 µl nucleofection
- Duration: 72 h after transfection plus 48 h differentiation (about 5 days)
- Conditions: five arms for 48 h: vehicle, AG1478 10 µM, BMP2/7 200 ng/ml, both together, or 10% serum
- Detection: 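Per-cell amount of a differentiation marker read by infrared scanning of the plate, given as a z-score within each plate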
- Scale: z-score, vehicle and z-score, AG1478 10 µM: higher = more differentiation marker per cell
The whole screen tested 331 reagents; shown is a random part of them. 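Each arm had three replicate z-scores, but only the first replicate is printed; higher values mean more differentiation marker per cell.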 Further read-outs or replicates are left out here.

| gene symbol | PubChem SID | z-score, vehicle | z-score, AG1478 10 µM |
| --- | --- | --- | --- |
| SETDB2 (SET domain bifurcated histone lysine methyltransferase 2) | SID135635868 | -0.542 | -0.693 |
| TRIM66 (tripartite motif containing 66) | SID135635798 | 0.017 | 0.469 |
| TRIM28 (tripartite motif containing 28) | SID135635801 | -0.555 | -0.721 |
| PHF8 (PHD finger protein 8) | SID135635808 | -0.863 | -0.767 |
| HDGFL2 (HDGF like 2) | SID135635828 | 0.805 | 0.548 |
| CXXC1 (CXXC finger protein 1) | SID135635790 | -0.849 | -0.673 |
| HDAC1 (histone deacetylase 1) | SID135635687 | 0.348 | 0.753 |
| MTA3 (metastasis associated 1 family member 3) | SID135635590 | 0.837 | 1.63 |
| TDRD10 (tudor domain containing 10) | SID135635907 | 0.0291 | -0.668 |
| KMT2A (lysine methyltransferase 2A) | SID135635873 | -0.651 | -0.386 |
| KMT5A (lysine methyltransferase 5A) | SID135635856 | -0.467 | 0.524 |

Continued, starting with the last 3 of the part before.
| gene symbol | PubChem SID | z-score, vehicle | z-score, AG1478 10 µM |
| --- | --- | --- | --- |
| TDRD10 (tudor domain containing 10) | SID135635907 | 0.0291 | -0.668 |
| KMT2A (lysine methyltransferase 2A) | SID135635873 | -0.651 | -0.386 |
| KMT5A (lysine methyltransferase 5A) | SID135635856 | -0.467 | 0.524 |
| JADE2 (jade family PHD finger 2) | SID135635788 | -0.311 | -0.425 |
| CYP11A1 (cytochrome P450 family 11 subfamily A member 1) | SID135635595 | -0.572 | -0.379 |
| SHPRH (SNF2 histone linker PHD RING helicase) | SID135635758 | 1.65 | 1.65 |
| SMARCAL1 (SNF2 related chromatin remodeling annealing helicase 1) | SID135635892 | 0.527 | 0.122 |
| TNRC18 (trinucleotide repeat containing 18) | SID135635587 | -0.829 | -1.03 |
| G2E3 (G2/M-phase specific E3 ubiquitin protein ligase) | SID135635765 | 0.0692 | 1.03 |
| CHD8 (chromodomain helicase DNA binding protein 8) | SID135635640 | -0.96 | -2.07 |
| MBD3L2 (methyl-CpG binding domain protein 3 like 2) | SID135635732 | -0.668 | -0.248 |
| SETD4 (SET domain containing 4) | SID135635863 | 0.631 | 0.462 |
| BRD7 (bromodomain containing 7) | SID135635610 | 1.94 | 0.573 |
| ATF7IP (activating transcription factor 7 interacting protein) | SID135635730 | -1.08 | 0.245 |
| JARID2 (jumonji and AT-rich interaction domain containing 2) | SID135635708 | -0.313 | 0.62 |
| MBD3L1 (methyl-CpG binding domain protein 3 like 1) | SID135635733 | -0.226 | -0.676 |
| RSF1 (remodeling and spacing factor 1) | SID135635782 | -0.546 | 0.237 |
| ASH1L (ASH1 like histone lysine methyltransferase) | SID135635874 | 0.519 | 1.12 |
| BPTF (bromodomain PHD finger transcription factor) | SID135635800 | 2.53 | 1.26 |
| ELP3 (elongator acetyltransferase complex subunit 3) | SID135635668 | 0.788 | 0.61 |
| ASXL1 (ASXL transcriptional regulator 1) | SID135635769 | 0.17 | -0.663 |
| JMJD8 (jumonji domain containing 8) | SID135635697 | -0.682 | 1.15 |
| KDM4B (lysine demethylase 4B) | SID135635713 | -2.69 | 0.0855 |
| SMARCA5 (SNF2 related chromatin remodeling ATPase 5) | SID135635886 | 3.61 | 2.86 |
| HDAC11 (histone deacetylase 11) | SID135635681 | 1.19 | 0.0509 |
| HR (HR lysine demethylase and nuclear receptor corepressor) | SID135635696 | 0.669 | -0.408 |
